Source: patent US11919857B2, “Phthalide derivative, preparation method and use thereof” (LANZHOU INSTITUTE OF CHEMICAL PHYSICS, CHINESE ACADEMY OF …, priority 2018, dated 2024)
Some of these results come from one statement about several compounds together.

System: PC12 cells
Experiment: Effects of phthalide and its derivatives on the proliferation of PC12 cells (MTT)
Assay type: cell-based
Conditions: 24 hours of incubation

With `CCC/C=C1\OC(=O)C2=C1CCC=C2` [ligustilide, reference compound] the “concentration that could inhibit the growth of PC12 cells” value was “at least 200 μM”.
